Assay results taken from paper doi:10.1101/2023.06.23.544932.

Chains of the proteins cited; added tags and fusions are not shown.
UniProt Q6EVK6: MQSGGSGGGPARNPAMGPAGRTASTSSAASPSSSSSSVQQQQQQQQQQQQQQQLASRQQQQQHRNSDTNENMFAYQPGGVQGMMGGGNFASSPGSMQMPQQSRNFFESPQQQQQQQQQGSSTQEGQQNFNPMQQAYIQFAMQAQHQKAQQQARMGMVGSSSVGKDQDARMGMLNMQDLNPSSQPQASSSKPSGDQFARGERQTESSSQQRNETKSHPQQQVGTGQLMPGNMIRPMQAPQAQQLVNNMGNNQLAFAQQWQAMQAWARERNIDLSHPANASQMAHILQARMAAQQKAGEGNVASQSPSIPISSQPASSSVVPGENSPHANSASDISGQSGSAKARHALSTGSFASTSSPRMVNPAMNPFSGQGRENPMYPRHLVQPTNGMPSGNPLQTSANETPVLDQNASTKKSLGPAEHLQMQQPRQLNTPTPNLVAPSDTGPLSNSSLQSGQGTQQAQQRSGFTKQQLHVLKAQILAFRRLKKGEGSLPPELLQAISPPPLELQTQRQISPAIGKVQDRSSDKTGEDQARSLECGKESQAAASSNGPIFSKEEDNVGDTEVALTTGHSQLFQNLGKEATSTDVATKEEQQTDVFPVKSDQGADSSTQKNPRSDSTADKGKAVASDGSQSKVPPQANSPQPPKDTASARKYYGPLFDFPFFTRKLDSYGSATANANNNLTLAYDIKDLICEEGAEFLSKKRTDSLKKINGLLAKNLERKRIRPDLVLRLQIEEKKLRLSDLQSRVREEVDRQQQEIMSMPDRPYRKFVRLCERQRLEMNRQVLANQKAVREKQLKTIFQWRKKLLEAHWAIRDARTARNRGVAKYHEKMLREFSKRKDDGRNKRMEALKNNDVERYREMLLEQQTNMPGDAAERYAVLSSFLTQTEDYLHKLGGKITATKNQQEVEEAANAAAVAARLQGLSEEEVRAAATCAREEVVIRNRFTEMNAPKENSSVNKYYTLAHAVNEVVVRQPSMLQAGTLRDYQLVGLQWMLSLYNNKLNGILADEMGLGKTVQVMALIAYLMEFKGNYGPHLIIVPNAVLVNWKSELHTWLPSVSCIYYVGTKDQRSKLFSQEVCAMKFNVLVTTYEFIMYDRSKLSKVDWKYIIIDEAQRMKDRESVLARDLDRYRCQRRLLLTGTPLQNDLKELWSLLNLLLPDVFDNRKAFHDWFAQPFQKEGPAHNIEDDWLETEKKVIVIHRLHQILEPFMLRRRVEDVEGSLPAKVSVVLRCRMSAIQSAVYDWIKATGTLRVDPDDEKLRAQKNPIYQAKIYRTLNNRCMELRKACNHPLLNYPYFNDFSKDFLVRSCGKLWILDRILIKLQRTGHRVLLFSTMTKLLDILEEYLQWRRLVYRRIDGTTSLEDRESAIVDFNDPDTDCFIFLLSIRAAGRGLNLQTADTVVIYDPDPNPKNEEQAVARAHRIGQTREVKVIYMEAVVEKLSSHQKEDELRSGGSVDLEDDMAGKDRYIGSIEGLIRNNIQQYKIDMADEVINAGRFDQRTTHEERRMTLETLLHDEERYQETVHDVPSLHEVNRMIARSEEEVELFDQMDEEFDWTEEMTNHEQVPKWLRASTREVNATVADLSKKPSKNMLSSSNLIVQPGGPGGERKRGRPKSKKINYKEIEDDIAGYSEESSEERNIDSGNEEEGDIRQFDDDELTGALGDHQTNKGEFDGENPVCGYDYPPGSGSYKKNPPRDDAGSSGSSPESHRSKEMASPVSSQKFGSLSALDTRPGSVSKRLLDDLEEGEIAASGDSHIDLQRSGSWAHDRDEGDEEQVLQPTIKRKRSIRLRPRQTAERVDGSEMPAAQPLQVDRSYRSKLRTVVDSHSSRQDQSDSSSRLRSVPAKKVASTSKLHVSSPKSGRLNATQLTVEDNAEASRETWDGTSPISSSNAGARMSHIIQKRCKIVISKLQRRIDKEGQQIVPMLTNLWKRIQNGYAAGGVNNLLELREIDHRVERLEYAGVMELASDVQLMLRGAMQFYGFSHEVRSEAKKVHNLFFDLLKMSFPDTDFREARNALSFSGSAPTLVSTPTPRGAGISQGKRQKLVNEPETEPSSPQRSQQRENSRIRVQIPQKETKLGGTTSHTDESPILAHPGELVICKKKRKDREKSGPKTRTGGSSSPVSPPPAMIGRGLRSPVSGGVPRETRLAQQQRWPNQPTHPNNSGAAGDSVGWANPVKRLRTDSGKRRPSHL

Biological target: BRASSINAZOLE-… 1 (BZR1), YFP-tagged (Arabidopsis thaliana) (UniProt Q8S307)
Test: affinity purification with mass spectrometry

## BRAHMA (BRM), SWI/SNF chromatin remodeler ATPase (from UniProt Q6EVK6 1-2193)
  binding: binds

These are yes or no findings as the source states them, for the method shown. In cells and extracts the contact can be indirect. Here binding means that the protein was enriched with, or labelled near, the bait; the list need not be complete.
